Results from article PMC8523568.
Results are given in words; binding and its absence hold for the method and conditions named. Binding seen in cells or lysates may run through a third protein. Some entries that bind do so weakly or less than the wild type. Sequences can lack the tags named with a protein.

Protein sequences, listed by entry. Tags and fused reporters are not part of them. Residues count along the entry.
UniProt P11021, residues 19-654: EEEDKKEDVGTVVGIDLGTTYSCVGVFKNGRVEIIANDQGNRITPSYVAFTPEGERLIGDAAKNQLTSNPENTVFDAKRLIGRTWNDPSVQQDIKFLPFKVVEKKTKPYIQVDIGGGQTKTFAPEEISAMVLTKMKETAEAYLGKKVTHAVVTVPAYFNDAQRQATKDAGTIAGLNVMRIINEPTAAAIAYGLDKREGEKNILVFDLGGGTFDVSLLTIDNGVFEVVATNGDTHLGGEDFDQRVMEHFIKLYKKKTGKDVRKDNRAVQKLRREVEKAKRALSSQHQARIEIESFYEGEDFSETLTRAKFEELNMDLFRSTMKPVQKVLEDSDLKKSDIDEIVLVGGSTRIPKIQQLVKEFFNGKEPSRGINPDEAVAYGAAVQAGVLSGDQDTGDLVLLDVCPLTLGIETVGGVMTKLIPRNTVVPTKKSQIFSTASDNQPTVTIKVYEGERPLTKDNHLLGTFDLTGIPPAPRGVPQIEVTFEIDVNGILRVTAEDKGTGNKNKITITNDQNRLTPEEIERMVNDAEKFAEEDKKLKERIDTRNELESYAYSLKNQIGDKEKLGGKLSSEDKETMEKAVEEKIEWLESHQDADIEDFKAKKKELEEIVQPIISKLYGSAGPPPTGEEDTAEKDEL

Target: T1, human CaSR with FLAG-tag (FLAG-hCaSR) (human) (UniProt P41180)
T1 sequence: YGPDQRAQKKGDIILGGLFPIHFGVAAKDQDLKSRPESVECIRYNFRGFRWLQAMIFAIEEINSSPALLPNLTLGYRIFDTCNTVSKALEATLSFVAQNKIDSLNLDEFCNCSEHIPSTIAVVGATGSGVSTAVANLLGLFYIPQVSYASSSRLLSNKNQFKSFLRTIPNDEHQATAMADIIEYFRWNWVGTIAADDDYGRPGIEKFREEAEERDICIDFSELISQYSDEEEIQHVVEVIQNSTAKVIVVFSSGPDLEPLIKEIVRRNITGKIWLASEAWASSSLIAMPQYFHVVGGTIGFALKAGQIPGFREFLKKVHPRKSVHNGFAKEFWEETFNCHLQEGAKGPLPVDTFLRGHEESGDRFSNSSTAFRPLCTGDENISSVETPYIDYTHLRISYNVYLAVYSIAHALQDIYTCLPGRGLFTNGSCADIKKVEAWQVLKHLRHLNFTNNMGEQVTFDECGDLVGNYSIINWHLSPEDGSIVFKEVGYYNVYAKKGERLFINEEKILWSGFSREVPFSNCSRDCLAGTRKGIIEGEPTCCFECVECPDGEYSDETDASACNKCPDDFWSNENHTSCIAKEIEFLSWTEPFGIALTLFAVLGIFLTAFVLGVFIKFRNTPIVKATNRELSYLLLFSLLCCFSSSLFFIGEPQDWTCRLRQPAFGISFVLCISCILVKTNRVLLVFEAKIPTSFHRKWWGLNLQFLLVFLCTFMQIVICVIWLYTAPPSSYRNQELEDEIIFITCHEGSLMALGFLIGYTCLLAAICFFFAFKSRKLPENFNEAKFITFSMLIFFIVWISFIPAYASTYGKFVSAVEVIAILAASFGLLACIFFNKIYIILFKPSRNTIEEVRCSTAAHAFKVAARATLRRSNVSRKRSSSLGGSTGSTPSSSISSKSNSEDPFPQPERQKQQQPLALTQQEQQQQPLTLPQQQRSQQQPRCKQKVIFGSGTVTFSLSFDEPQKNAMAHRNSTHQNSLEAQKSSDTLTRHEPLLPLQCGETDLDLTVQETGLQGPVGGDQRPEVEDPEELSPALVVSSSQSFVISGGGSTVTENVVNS
Test: co-IP; anti-FLAG IP from total extracts of HEK293 cells transfected with FLAG-CaSR and VAPA or GRP78, cells treated with 4 mM Ca2+ or 2 mM EGTA; 100% of the beads used for western blot with anti-VAPA or anti-GRP78; triplicates

GRP78, transfected (from UniProt P11021 19-654)
binding: binds
